Test results from publication PMC10343654 (Molecules, 2023).
Strings that start with PEPTIDE1 are HELM notation: dots part the residues, brackets hold end groups and non-standard residues.

test: general procedure: Fmoc solid-phase peptide synthesis; 2-chlorotrityl-chloride resin (0.9 mmol/g); settings: whole synthesis, UPLC-UV-MS (Waters AQUITY-H-Class-SQD2, BEH C18)

“PEPTIDE1{R.P.[Hyp].G.[Thi].S.[NChg].[Thi].R}$$$$V2.0” and “PEPTIDE1{[Mpa].[bAla].K.R.P.P.G.F.S.P.[dF]}$$$$V2.0” are the same in “final HPLC purity” value: 100% for the first, 100% for the second.

First: PEPTIDE1{[Mpa].[bAla].R.P.[Hyp].G.[Thi].S.[NChg].[Thi].R}$$$$V2.0
Second: PEPTIDE1{[Mpa].[bAla].[Orn].R.[Oic].P.G.[aMePhe].S.[D-bNal].I}$$$$V2.0
The “final HPLC purity” value of the first is higher: 100% for the first, 99.8% for the second.

First: PEPTIDE1{[Sar].K.R.P.P.G.F.S.P.[dF]}$$$$V2.0
Second: PEPTIDE1{[ac].[Orn].R.[Oic].P.G.[aMePhe].S.[D-bNal].I}$$$$V2.0
The “final HPLC purity” value of the first is lower: 99.1% for the first, 99.2% for the second.
